# For at least one compound, name, drawing or mass did not settle the structure.
# Test system: CD-IGS rats
# Test: Rat model of excisional wound healing
# Format: in vivo
# Settings: 0.5 mg/kg qd
# Procedure: Male CD-IGS rats (Strain code 001; n=32-52 per experiment) were obtained from Charles River Laboratories at a body weight of 175-195 g. Rats were housed in regular shoebox cages and allowed to become acclimated for a minimum of 1 week. Rats were fed Harlan Teklad (No. 7001) 4% mouse/rat diet and water ad libitum and were maintained on a 12-hour light/dark cycle.
# Suspensions of Compound JNKi-1 were prepared in aqueous 0.5% CMC and 0.25% Tween-80. The formulations were homogenized using a TEFLON® pestle and mortar (Potter-Elvehjem tissue grinder). Vehicle (aqueous solution of 0.5% carboxymethylcellulose, and 0.25% Tween-80) and test article compounds were dosed at a volume of 5 mL/kg. […]
# Rats were anesthetized by inhaled isoflurane and the dorsal area was shaved and swabbed with 70% alcohol. […] Rats were monitored twice a day for the first 24 hours following the procedure and then daily until the end of the study. Body weights were recorded two or three times per week. […]
# Each wound size was measured using an electronic digital caliper and the percent of wound remaining open was calculated relative to the initial wound size recorded on day 0 (day of wounding procedure). […]
# Wound healing was evaluated on day 10 and day 14 after the procedure. H&E sections were scored for re-epithelialization using the following criteria: […]
smiles,measurement,value
"C[C@@H]1C[C@H]2[C@@H]3CCC4=CC(=O)C=C[C@]4(C)[C@@]3(F)[C@@H](O)C[C@]2(C)[C@@]1(O)C(=O)CO [Dexamethasone, reference compound]",animals with complete re-epithelialization and collagen remodeling at day 10,none

# Source: patent US8680076B2, “Methods of treatment, improvement and prevention using haloaryl substituted aminopurines” (Signal Pharmaceuticals, LLC, priority 2010, dated 2014)
